Test results taken from paper PMC4936677.
These are yes or no findings as the source states them, for the method shown. In cells and extracts the contact can be indirect. Some results given as binding are weak or reduced against the parent protein; the word gives no strength.

By UniProt entry, the sequences of proteins in these tests, tags left out.
UniProt O43474: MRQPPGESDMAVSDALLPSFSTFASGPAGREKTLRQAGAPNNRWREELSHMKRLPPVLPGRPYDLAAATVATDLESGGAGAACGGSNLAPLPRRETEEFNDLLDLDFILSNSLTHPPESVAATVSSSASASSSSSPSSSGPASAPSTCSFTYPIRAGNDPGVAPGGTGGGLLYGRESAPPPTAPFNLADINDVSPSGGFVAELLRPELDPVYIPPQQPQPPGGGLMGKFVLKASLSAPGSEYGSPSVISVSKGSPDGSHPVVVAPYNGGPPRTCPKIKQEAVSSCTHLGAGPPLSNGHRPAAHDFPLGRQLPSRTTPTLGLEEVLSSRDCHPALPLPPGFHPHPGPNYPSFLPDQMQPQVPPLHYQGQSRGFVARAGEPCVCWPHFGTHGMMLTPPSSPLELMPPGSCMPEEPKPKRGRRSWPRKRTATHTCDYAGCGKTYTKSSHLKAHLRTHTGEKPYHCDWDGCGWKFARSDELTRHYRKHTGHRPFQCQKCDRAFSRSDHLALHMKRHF
UniProt O75626: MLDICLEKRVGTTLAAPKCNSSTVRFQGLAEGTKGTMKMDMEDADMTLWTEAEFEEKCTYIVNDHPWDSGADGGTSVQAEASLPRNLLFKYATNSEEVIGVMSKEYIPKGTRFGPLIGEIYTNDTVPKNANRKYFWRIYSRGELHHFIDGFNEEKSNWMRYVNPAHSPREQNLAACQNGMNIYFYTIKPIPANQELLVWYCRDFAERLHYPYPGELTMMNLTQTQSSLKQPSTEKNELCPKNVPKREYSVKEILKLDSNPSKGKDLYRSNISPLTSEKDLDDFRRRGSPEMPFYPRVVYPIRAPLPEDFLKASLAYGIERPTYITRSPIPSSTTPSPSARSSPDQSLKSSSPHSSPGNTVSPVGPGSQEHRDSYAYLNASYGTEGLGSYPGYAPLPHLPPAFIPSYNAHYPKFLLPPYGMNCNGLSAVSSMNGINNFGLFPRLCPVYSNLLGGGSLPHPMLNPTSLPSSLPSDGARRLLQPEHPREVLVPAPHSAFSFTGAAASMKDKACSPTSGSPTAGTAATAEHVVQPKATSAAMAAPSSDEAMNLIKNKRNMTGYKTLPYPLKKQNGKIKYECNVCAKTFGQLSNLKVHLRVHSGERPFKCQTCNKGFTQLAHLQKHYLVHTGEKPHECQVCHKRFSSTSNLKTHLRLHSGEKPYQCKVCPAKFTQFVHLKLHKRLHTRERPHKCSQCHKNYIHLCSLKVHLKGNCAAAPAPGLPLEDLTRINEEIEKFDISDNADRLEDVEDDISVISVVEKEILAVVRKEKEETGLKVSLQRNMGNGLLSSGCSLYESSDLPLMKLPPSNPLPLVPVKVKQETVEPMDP

Molecular target: KLF4 (human (endogenous in HFKs and HFK-31gen cells)) (UniProt O43474)
Experiment: co-IP; lysates of differentiated HFKs and HFK-31gen cells in RIPA buffer with SDS and protease, phosphatase and desumoylation inhibitors; 200 ug protein precipitated overnight with KLF4 antibody (SC-393462) and protein A/G agarose beads, three washes with RIPA buffer; western blot for Blimp1

binding: binds
Substance: Blimp1 (from UniProt O75626 1-825)
